Experimental data as given in publication PMC10163288.
Some of the results follow.

B1: il10ra_site1_sap_16_mot_HHH_b1_02641_af2_000000230_0001_39_52_H_._HHH_b2_05156_af2_0001_0001000022_0000001_0_0001 (protein)
chain: SSSSSSSAEEYLEEVEELLEEGNPEEALRLLVEALRVAYQESDEEALQALWRLAKRIASSSSSSS
B2: il10ra_site1_normal_mot_HHH_b2_05797_000000294_0001_1_19_H_._HHH_b2_04237_0001_0000300026_0000002_0 (protein)
chain: SSSSDLEEYVRAARLFAEALLEAGDPEAARRILRALLEVVRRLGNEELERLLEELLEEVEGSSSS
B3: il10ra_site1_normal_mot_HHH_b2_00475_000000107_0001_44_57_H_._HHH_b1_06647_af2_0001_0000500027_0000002_0 (protein)
chain: SSSSLEERVVELAFRAVRLLANGNPEEAEEVLKEAKELAEELNDEELERYVEIALHFVEAHSSSS
B4: il10ra_site1_normal_mot_HHH_b2_04275_000000272_0001_20_36_H_._HHH_b1_08416_0001_0000100012_0000002_0 (protein)
chain: SSSSTEASQLVYELLRKASELQHEGNEEEARELLEEAERIAEENNNEVLLATIRFLLELISSSSS
B5: il10ra_site1_normal_mot_HHH_b1_05326_000000242_0001_1_20_H_._HHH_b2_05780_af2_0001_0000300019_0000001_0 (protein)
chain: SSSSDEQERALEISVHAFRALLRGNPEEAEELLEEALELAEKNNDERLARLIRELLETIGSSSSS
B6: il10ra_site1_sap_20_mot_HHH_b2_03434_000000017_0001_1_19_H_._HHH_b2_07026_0001_0000200006_0000001_0_0001_af2pred_0001 (protein)
chain: SSSSNNEESVEILLRAAKELDDPEAVKRALKFAEAAAKDANNDELERLVREVKEQLEEELSSSSS
B7: il10ra_site1_sap_20_mot_HHH_b2_02736_000000092_0001_22_38_H_._HHH_b1_05484_0001_0000200010_0000001_0_0001 (protein)
chain: SSSSTLEYSVKFVLEVAEEAFKLGDEEKARYQLEAILEHIRQAGDEELLEEVEELLRELNSSSSS
B8: il10ra_site1_sap_19_mot_HHH_b2_03220_af2_000000223_0001_23_40_H_._HHH_b2_06349_af2_0001_0000100001_0000002_0_0001 (protein)
chain: SSSSSEEEELKELLEELEELVERGDEEKVLRAAHRILRLVFRLSDPEALERLWELMQRAGSSSSS
B9: il10ra_site1_normal_mot_8756ee2cf497b5429c717dfc0c0bcfd6_0001_000000186_0001_1_13_H_._HHH_b1_07178_af2_0001_0000300014_0000001_0_af2pred_0001 (protein)
chain: SSSSSSEEVLELLRRAMELAKEGNEEEAREVLEKAKELAEELNDRLLLFLIERLEEQLDSSSSSS
B10: il10ra_site1_normal_mot_HHH_b2_05813_000000266_0001_1_19_H_._HHH_b2_02271_af2_0001_0000100003_0000002_0_af2pred_dldesign_0_af2pred (protein)
chain: SSSSSPEEKKAFDTLVKAYQLEQAGKPEEAKKLLEETLAELRAAGDAEAARSLEALLRYLESSSS
B11: il10ra_site1_sap_23_mot_HHH_b1_05056_000000217_0001_1_20_H_._a6c796b944619e241e020fd597ddb6da_0001_0001_0000600034_0000001_0_0001 (protein)
chain: SSSSTHELYRLSREAAELLARGDAEEARKVVEEAEELAEENNNPVFLHAIRLLLRSIKLRSSSSS
B12: il10ra_site1_sap_17_mot_HHH_b1_06788_af2_000000238_0001_19_36_H_._HHH_b1_06164_af2_0001_0000500015_0000001_0_0001_af2pred_0001 (protein)
chain: SSSSNEEEKRLSQLYLEAARLWDEGNPEEAEKVTRELEELARELGDEEAKKAVEFLKALKSSSSS
B13: il10ra_site1_sap_17_mot_HHH_b1_02665_000000293_0001_1_18_H_._HHH_b1_07223_af2_0001_0000300011_0000001_0_0001 (protein)
chain: SSSSDEEVERRVEELLEEAKHITDPEELEKLIVEAAALAARANDPHLSMAVIRVYAELHQKSSSS
B14: il10ra_site1_sap_12_mot_HHH_b1_07527_000000076_0001_1_15_H_._744e782b3a2987b27db6241638482799_0001_1_0001_0000600019_0000001_0_0001_af2pred_dldesign_0_af2pred (protein)
chain: SSSSSEMEEALRLAAIARAIAEKKGDLDTVKKLFDLSVELYKTKDPELAEELRALAEKILSSSSS
B15: il10ra_site1_normal_mot_HHH_b1_07768_000000240_0001_18_35_H_._HHH_b1_03140_0001_0000200010_0000002_0 (protein)
chain: SSSSTLEFSVRFLLRHAEELLENGDPEKARFQLEKLKEHLKQAGNEELLEELEELLREVNSSSSS
B16: il10ra_site1_sap_21_mot_HHH_b1_02665_000000293_0001_1_18_H_._HHH_b1_03134_af2_0001_0000500018_0000001_0_0001 (protein)
chain: SSSSDEEYEEIKRLAQEIVEALRNNDPELVRELLEELKELAEELNDWSAEFAVRLLEEILRSSSS
B17: il10ra_site1_sap_20_mot_HHH_b2_02116_af2_000000165_0001_41_55_H_._HHH_b1_04497_af2_0001_0000400017_0000001_0_0001 (protein)
chain: SSSSDELEERIEELLKELEKLVEEGDMEKVMRLAKEILHLLFRLGNPELVHELWKIAHAAYSSSS
B18: il10ra_site1_normal_mot_HHH_b2_07442_000000239_0001_40_54_H_._HHH_b2_02446_0001_0000300042_0000001_0 (protein)
chain: SSSSDLAREVYEALRRAAELDRNGNPEEVERLLEELLKELEELNDEFLLVLVESVRRIFKSSSSS
B19: il10ra_site1_normal_mot_HHH_b1_02397_af2_000000085_0001_39_57_H_._HHH_b1_04458_af2_0001_0000400029_0000001_0 (protein)
chain: SSSDLEEEIRELLEEVEELLKEGDHEEAARLLQELLRLIFRLGDAELLRILYELVRLLAELSSSS
B20: il10ra_site1_normal_mot_HHH_b2_05797_000000294_0001_1_19_H_._HHH_b1_05870_0001_0000100004_0000001_0 (protein)
chain: SSSSSELEQYAEATLRFAKALAEAGDPEAARFLLEAVLQVLEKENNEELLELVEKLLEEISSSSS
B21: il10ra_site1_normal_mot_HHH_b1_02397_af2_000000085_0001_39_57_H_._HHH_b1_04573_af2_0001_0000500005_0000001_0 (protein)
chain: SSSSDEEEEELEELLKRLEELIEEGDREEFARLVQELLRLAFRLSDPEVLQRVWELVREAASSSS
B22: il10ra_site1_sap_18_mot_HHH_b2_04275_000000272_0001_20_36_H_._HHH_b1_07345_af2_0001_0000300023_0000001_0_0001 (protein)
chain: TEEILEAVEELLRELNSPNAKALLYLIEHQREHGAPPETILRSLKAAARILGDPEVLRLIEEAEK
B23: il10ra_site1_normal_mot_HHH_b1_00999_000000080_0001_41_55_H_._HHH_b2_07534_af2_0001_0000400038_0000001_0 (protein)
chain: SSSSDEEEEELRELLELVEELLERGDPERASRVAQELLRLIFRLSDEEALKKLWELMKKYGSSSS
B24: il10ra_site1_sap_15_mot_HHH_b1_06912_af2_000000235_0001_1_15_H_._HHH_b1_05618_af2_0001_0000500055_0000001_0_0001 (protein)
chain: SSSSSSEEQEEFRRLEEELEEAKSAQEFYEILKRLIEVAVKANDPELERLVHELLRRFIHSSSSS
B25: il10ra_site1_sap_27_mot_HHH_b1_02881_000000027_0001_1_20_H_._HHH_b2_04581_0001_0000200009_0000001_0_0001 (protein)
chain: SSSSDAEKRIAELLHELMEAYKRGDKEEARELLRELEELAEELNNKALRWILEFMERLLNSSSSS
B26: il10ra_site1_sap_14_mot_2fa031a62b9321f410fa37cb4b35ac9e_0001_af2_000000160_0001_1_14_H_._HHH_b1_01441_af2_0001_0000100002_0000002_0_0001 (protein)
chain: SSSSSDEEEVEKLLEKAEEAAERGNPEEANKLLAEAVRLAYQARNEELLREIWEVVRRLGSSSSS
B27: il10ra_site1_normal_mot_HHH_b2_01310_000000089_0001_41_55_H_._ems_p1-15H-GBL-16H-GABBL-16H_0175_0001_0001_0002_af2_0001_0000100008_0000001_0 (protein)
chain: SSSSSDVVELAQEAVRFAFEKGDAEGLQRIMEVLKAFINGEISEEEASERLEEILEELRSSSSSS
B28: il10ra_site1_sap_18_mot_HHH_b2_01999_000000006_0001_1_18_H_._HHH_b2_08069_af2_0001_0000200010_0000001_0_0001_af2pred_0001 (protein)
chain: SSSSDLEADIRSAARAARLLLEAGDPEKAEEALRIAELSAELANNEELKEEIRRLEEEVRSSSSS
B29: il10ra_site1_sap_27_mot_HHH_b2_02567_af2_000000093_0001_41_57_H_._HHH_b1_03852_0001_0000400038_0000002_0_0001 (protein)
chain: SSSSDEDERYLELALHFAEALLEDGDPEAARLILKAAADIARKAGDEELLEEIERLLEEIGSSSS
B30: il10ra_site1_normal_mot_0cd074c2d6d3de76f1399c5a775575d2_0001_1_af2_000000000_0001_16_30_H_._HHH_b1_05697_af2_0001_0000400018_0000001_0 (protein)
chain: SSSSDEEELRELVEELVKELGLSEEAQERLELALEALLEQGVDEREIKRLLEIQARLLAFTSSSS
B31: il10ra_site1_normal_mot_HHH_b1_01879_000000050_0001_1_18_H_._HHH_b1_00727_af2_0001_0000600044_0000002_0_af2pred_0001 (protein)
chain: SSSSSEEVLRLLLEALKLIRRGDLEEAEEVLKEMERLAEELNDEQARRAVEVLKRLLEELGSSSS
B32: il10ra_site1_normal_mot_HHH_b2_03220_af2_000000223_0001_23_40_H_._HHH_b2_00330_0001_0000100005_0000002_1_af2pred_0001 (protein)
chain: SSSSDAREVQRLIREAWRLLREGNPEEAQKLLEEAEEIAKEAGNELLERLLERLRKEIENSSSSS
B33: il10ra_site1_normal_mot_HHH_b2_00612_000000251_0001_1_14_H_._HHH_b2_03072_0001_0000200008_0000002_0 (protein)
chain: SSSSDESTELARKAAEELSELEREGNEEEFERLAREVVEQLRELGNQLAAFSIEYLLRLAKSSSS
B34: il10ra_site1_normal_mot_HHH_b1_06125_000000022_0001_1_19_H_._HHH_b1_05627_0001_0000200015_0000002_0 (protein)
chain: SSSSDEEREEALELAREIFRLALRGNPEEAERLLEELRELVEKIGNPALEKAVRILEEALSSSSS
B35: il10ra_site1_normal_mot_HHH_b1_06994_000000193_0001_40_55_H_._HHH_b2_06735_0001_0000100008_0000001_0_af2pred_0001 (protein)
chain: SSSSSEEERKLARAALRLAEEIYEAGNPEVAERLLRALAEILEKEGDEELLQEVERLLEELSSSS
B36: il10ra_site1_sap_26_mot_HHH_b2_06321_af2_000000133_0001_42_55_H_._HHH_b2_07191_af2_0001_0000100003_0000001_0_0001 (protein)
chain: SSSSSNEERAKEAAELMLRAAKQLDDPEYVRMALRFALHLARYANDEELEEEIEELLKEYSSSSS
B37: il10ra_site1_sap_13_mot_HHH_b1_05357_000000034_0001_23_39_H_._HHH_b2_05608_0001_0000100002_0000001_0_0001 (protein)
chain: SSSSDQEEELAEAAHRLIEQALKHGDEEAARMLLWSLHFLAEELNDPELRELVEELRQRLDSSSS

Target: il10ra, Q13651
Assay: yeast display titration

Apparent Kd, inactive:
B1 no binding seen, B2 no binding seen, B3 no binding seen, B4 no binding seen, B5 no binding seen, B6 no binding seen, B7 no binding seen, B8 no binding seen, B9 no binding seen, B10 no binding seen, B11 no binding seen, B12 no binding seen, B13 no binding seen, B14 no binding seen, B15 no binding seen, B16 no binding seen, B17 no binding seen, B18 no binding seen, B19 no binding seen, B20 no binding seen, B21 no binding seen, B22 no binding seen, B23 no binding seen, B24 no binding seen, B25 no binding seen, B26 no binding seen, B27 no binding seen, B28 no binding seen, B29 no binding seen, B30 no binding seen, B31 no binding seen, B32 no binding seen, B33 no binding seen, B34 no binding seen, B35 no binding seen, B36 no binding seen, B37 no binding seen
